Source: PMC7397857
Results are given in words; binding and its absence hold for the method and conditions named. Binding seen in cells or lysates may run through a third protein. These calls come from enrichment with a bait or labelling near it, and not all partners need be listed.

Chains of the proteins cited; added tags and fusions are not shown.
UniProt A2RRP1: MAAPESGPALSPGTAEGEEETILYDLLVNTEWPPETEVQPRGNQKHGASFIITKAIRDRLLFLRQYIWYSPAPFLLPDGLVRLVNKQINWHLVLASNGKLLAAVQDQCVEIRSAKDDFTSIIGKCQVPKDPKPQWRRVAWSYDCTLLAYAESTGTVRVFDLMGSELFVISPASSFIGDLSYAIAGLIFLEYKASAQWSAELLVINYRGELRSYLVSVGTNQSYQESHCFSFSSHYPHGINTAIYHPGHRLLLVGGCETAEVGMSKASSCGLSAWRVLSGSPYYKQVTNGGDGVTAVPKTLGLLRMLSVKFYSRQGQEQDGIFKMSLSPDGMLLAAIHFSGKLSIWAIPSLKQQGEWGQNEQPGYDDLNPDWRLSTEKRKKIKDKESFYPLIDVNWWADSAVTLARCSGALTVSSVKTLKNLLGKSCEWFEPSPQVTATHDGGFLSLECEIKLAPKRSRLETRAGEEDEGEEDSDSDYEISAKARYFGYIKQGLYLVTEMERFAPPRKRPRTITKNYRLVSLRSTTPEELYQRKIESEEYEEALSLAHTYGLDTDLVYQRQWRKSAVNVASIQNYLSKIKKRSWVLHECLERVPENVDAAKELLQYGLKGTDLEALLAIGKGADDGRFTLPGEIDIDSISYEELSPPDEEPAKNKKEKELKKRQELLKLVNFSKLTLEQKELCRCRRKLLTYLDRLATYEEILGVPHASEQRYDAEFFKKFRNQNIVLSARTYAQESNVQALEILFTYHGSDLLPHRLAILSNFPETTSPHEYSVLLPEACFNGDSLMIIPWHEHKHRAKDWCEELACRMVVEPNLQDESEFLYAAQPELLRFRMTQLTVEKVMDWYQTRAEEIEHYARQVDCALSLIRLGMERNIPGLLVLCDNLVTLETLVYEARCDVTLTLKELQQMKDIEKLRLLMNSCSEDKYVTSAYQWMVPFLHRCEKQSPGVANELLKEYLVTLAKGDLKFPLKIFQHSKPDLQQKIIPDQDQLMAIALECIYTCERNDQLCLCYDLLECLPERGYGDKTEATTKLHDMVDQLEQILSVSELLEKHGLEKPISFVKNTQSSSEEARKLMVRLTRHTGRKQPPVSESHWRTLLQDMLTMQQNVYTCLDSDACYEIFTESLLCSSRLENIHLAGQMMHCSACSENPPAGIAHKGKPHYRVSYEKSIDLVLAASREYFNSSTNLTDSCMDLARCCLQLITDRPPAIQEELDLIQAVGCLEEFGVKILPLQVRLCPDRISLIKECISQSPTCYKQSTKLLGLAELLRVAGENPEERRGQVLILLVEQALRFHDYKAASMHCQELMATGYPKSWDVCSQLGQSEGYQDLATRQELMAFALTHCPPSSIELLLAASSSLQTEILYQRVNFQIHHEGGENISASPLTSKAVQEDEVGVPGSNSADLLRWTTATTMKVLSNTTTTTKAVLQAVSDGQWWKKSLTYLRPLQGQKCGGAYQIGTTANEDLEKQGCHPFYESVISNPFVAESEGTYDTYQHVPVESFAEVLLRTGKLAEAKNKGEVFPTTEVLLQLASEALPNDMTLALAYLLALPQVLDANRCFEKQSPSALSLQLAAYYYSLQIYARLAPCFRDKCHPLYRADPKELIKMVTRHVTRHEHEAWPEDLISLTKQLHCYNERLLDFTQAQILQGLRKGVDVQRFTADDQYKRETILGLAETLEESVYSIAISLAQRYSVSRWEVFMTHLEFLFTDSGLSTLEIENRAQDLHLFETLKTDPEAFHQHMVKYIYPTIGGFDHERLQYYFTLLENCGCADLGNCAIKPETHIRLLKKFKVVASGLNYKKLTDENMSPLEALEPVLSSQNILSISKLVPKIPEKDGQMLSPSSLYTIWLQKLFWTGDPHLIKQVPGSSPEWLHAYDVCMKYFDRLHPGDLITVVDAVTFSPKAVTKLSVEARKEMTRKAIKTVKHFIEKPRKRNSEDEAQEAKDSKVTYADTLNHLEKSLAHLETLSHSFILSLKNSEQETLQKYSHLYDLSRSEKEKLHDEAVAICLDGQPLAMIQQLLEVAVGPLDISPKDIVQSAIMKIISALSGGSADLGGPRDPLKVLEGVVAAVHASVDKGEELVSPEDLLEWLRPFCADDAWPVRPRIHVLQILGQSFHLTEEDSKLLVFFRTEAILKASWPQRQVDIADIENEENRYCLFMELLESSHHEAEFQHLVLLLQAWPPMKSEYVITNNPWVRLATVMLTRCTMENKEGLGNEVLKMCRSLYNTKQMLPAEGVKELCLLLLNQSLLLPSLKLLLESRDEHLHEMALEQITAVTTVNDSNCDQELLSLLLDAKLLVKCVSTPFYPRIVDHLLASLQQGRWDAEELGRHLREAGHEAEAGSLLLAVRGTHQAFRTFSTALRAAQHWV
UniProt P61619: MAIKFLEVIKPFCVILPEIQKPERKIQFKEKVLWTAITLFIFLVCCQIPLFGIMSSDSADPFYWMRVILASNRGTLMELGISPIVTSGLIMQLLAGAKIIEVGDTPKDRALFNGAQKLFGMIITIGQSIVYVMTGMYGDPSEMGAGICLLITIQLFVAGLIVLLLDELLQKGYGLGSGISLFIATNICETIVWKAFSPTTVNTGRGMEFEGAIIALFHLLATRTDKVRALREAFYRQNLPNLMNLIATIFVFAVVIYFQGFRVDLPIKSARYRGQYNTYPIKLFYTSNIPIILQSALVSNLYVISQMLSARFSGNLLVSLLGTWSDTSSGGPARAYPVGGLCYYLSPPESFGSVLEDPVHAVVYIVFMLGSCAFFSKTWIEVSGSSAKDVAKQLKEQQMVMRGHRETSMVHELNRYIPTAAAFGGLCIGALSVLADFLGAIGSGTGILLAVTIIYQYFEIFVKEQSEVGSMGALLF

Molecular target: endogenous NBAS tagged with an eGFP/3xFlag tag at its N terminus (human) (UniProt A2RRP1)
Test: affinity purification with mass spectrometry; anti-GFP immunoprecipitation of endogenously eGFP/3xFlag-tagged NBAS, interacting proteins found by mass spectrometry; independent of the presence of RNA

binding: binds
Substance: SEC61A1 (from UniProt P61619 1-476)
